For three molecules, binding results are on record in PMC10600341.

The chains behind the UniProt entries cited, without tags or fusion partners. Where a name states a change or a piece, a line headed by the entry shows the natural chain unless it says otherwise.
UniProt P70278: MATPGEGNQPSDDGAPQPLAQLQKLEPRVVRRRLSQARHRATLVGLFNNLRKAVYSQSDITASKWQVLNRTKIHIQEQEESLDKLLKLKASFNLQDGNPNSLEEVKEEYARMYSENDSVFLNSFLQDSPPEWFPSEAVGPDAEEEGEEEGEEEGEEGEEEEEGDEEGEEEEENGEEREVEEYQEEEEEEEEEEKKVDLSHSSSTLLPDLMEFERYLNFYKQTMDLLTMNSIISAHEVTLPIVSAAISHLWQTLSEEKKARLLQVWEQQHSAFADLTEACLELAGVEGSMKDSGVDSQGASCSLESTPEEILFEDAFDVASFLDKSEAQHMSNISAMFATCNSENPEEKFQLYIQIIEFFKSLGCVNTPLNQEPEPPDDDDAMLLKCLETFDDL

B1: Retinoblastoma protein RB1 (protein, UniProt P13405 1-921)
chain: MPPKAPRRAAAAEPPPPPPPPPREDDPAQDSGPEELPLARLEFEEIEEPEFIALCQKLKVPDHVRERAWLTWEKVSSVDGILEGYIQKKKELWGICIFIAAVDLDEMPFTFTELQKSIETSVYKFFDLLKEIDTSTKVDNAMSRLLKKYNVLCALYSKLERTCELIYLTQPSSALSTEINSMLVLKISWITFLLAKGEVLQMEDDLVISFQLMLCVVDYFIKFSPPALLREPYKTAAIPINGSPRTPRRGQNRSARIAKQLENDTRIIEVLCKEHECNIDEVKNVYFKNFIPFINSLGIVSSNGLPEVESLSKRYEEVYLKNKDLDARLFLDHDKTLQTDPIDSFETERTPRKNNPDEEANVVTPHTPVRTVMNTIQQLMVILNSASDQPSENLISYFNNCTVNPKENILKRVKDVGHIFKEKFANAVGQGCVDIGVQRYKLGVRLYYRVMESMLKSEEERLSIQNFSKLLNDNIFHMSLLACALEVVMATYSRSTLQHLDSGTDLSFPWILNVLNLKAFDFYKVIESFIKVEANLTREMIKHLERCEHRIMESLAWLSDSPLFDLIKQSKDGEGPDNLEPACPLSLPLQGNHTAADMYLSPLRSPKKRTSTTRVNSAANTETQAASAFHTQKPLKSTSLALFYKKVYRLAYLRLNTLCARLLSDHPELEHIIWTLFQHTLQNEYELMRDRHLDQIMMCSMYGICKVKNIDLKFKIIVTAYKDLPHAAQETFKRVLIREEEFDSIIVFYNSVFMQRLKTNILQYASTRPPTLSPIPHIPRSPYKFSSSPLRIPGGNIYISPLKSPYKISEGLPTPTKMTPRSRILVSIGESFGTSEKFQKINQMVCNSDRVLKRSAEGGNPPKPLKKLRFDIEGADEADGSKHLPAESKFQQKLAEMTSTRTRMQKQRMNESKDVSNKEEK
B2: meiosis initiator (MEIOSIN) (protein, UniProt A0A5K7RLP0 1-589)
chain: MLGSDKFSCFSDQHRARSPSPTDRKDKKNHTNKLRELALLIPVTMKTRDKKYTKKEILLRVLHYIQYLQRNIDMTKALLKLHSSNGKGRFVGPGLNPSAGQTQQQHSTPSSSQKPSLWSTSSKPRKKKFTRVSEHPSWPYNPRRSLALDQAENPNTIHPGLKEENEECATYPGVLSPSTYPTTEPSVSEGDGQGAQLVFLDMAQNIFAYDILSDHAVEVQGGEPNADIKVQRSFFLTRAQPCVSSCRQKLFLCTSSEADKEAPDSDPWLPVWTSEDSPNGSPLALGSSQINTWHVADYLNEILGVSSSLFSSPSKILPDHVLEDGTYFLTEGLLESSPATCEVESPQEKEVSSEGPTGPPNFQSSVSLDHCYLSLSENVKVLSNCGSSSESTDTESLWGQEEVRGVATYPRRTGVFSLAQPSVLQQANPEGLQTSSDEDRDYTWTPTGQSSGLPVASKKIKKVQASQGPVKPKDSRKACPGQVKKKCVNGFIMFCRMNRKQYIRACPGTASTAATKDLAQLWRGMTLEEKKPYCTKARRFSRQNNRIVKQENSSSEDDDGETPKPFYQLLAEKAQVSLGLTSLPTPNCQ
B3: p107/RB-Like1 (protein, UniProt Q64701 1-1063)
chain: MFEDEPHAEGAAAVAAAREALQALCQELNLDEGSAAEALDDFTAIRGNYSLEGEVIHWLACSLYVACRKSIIPTVGKGVMEGNCVSLTRILRSAKLSLIQFFSKMKKWMDMSNLPQEFRERIERLERNFEVSTVIFKKFEPIFLDIFQNPYEEPPKLPRSRKQRRIPCSVKDLFNFCWTLFVYTKGNFRMIGDDLVNSYHLLLCCLDLIFANAIMCPNRRDLLNPSFKGLPSDFHAPDFKAAEEPPCIIAVLCDLHDGLLVEAKGIKEHYFKPYISKLFDKKILKGECLLDLSSFTDNSKAVNKEYEEYVLTVGDFDERIFLGADAEEEIGTPRKFTADTPFGKLTSQASVECNLQQHFEKKRSFAPSTPLTGRRYLQEKEAVTTPVASATQSVSRLQSIVAGLKSAPSEQLLNIFESCMRNPMGNIIKIVKGIGETFCQHYTQSTDKQPGSHIDFAVNRLKLAEILYYKILETIMVQETRRLHGMDMSVLLEQDIFHKSLMACCLEIVLFAYSSPRTFPWIIEVLDLQPFYFYKVIEVVIRSEEGLSRDMVKHLNSIEEQILESLAWTNNSALWEALHASANRVPSCEEVIFPNNFEIGNGGNVQGHLPMMPMSPIIHPRVKEVRTDSGSLRQDMQPLSPISVHERYSSPAAGSAKRRLFGDDPPKDTLMDKIMAEGTKLKIAPSSVTAESLSISPGQALLTMATTTVTGTTGRKVTVPLHGIANDAGEITLVPISMNPTQESTAESPVSLTAQSLIGTSPKQTHLTKAQDAHLTGVSKPKRTGSLALFYRKVYHLASVRLRDLCLKLDVSNELRRKIWTCFEFTLVHCPDLMKDRHLDQLLLCAFYIMAKVTKEERTFQEIMKSYRNQPQANSHVYRSVLLKSIPGGVVVYNGDCEMTDGDIEDATKTPNCSSEPVKEERGDLIKFYNTVYVGRVKSFALKYDLSNQDHIMDAPPLSPFPHIKQQPGSPRRISQQHSLYVSPHKNGAGLTPRSALLYKFNGSPSKSLKDINNMIRQGEQKTKKRVIAISGDADSPAKRLCQENDDVLLKRLQDVVSERANH

No constants are given. Whether binding was seen depends on the method and setting. Binding seen in cells or lysates may run through a third protein. Binding calls can cover weak binding; strength is not graded here.

This assay deals with 3xFLAG-HA tagged mutant STRA8 lacking the LXCXE motif (STRA8 ΔLXCXE) (mouse) (UniProt P70278). Put plainly: co-IP; tandem affinity purification with anti-FLAG M2 beads (elution with 3xFLAG peptide) and then anti-HA beads from chromatin-bound testis extracts of 10 to 12-day old knock-in mice; washes with high salt extraction buffer (400 mM KCl); western blot; non-tagged wild-type testis as negative …. A general note: In western blotting, separated proteins are transferred to a membrane and probed.
Turning to B1, the binding entry is reported as “no binding”. Take B2: the binding entry is recorded as “binds”.

For B3, the binding result is recorded as “no binding”.
